Measurements published in PubChem BioAssay AID504834 (National Center for Advancing Translational Sciences (NCATS), 2011).
Screen size: about 320,000 compounds; about 22,000 (6.9%) were called active. This list was built around the results that the source calls inconclusive (neither active nor inactive); the mix of calls is not that of the screen. The call rests on the fitted dose curve; in most records, active means well fitted inhibition curve with a large enough effect; inconclusive means small, poorly fitted or top-dose-only effect, or another doubt; inactive means no such curve, though single readings can be large or run the other way. A potency beside an inconclusive call is a rough fit, not a confirmed value.

Experiment: Primary qHTS for delayed death inhibitors of the malarial parasite plastid, 96 hour incubation
Details: P. falciparum luciferase reporter growth; series mostly up to 28.7 µM; activity change, negative = inhibition: at the top concentration
How it was run: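 Erythrocytes infected with luciferase-expressing P. falciparum were dispensed at 2% hematocrit and 0.05% parasitemia (final), then incubated with compounds 96 hours at 37 C in 5% CO2. Luminescence after detection reagent addition reported growth.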
On the % scale 0 is the no-effect control and ±100 the full control effect; potency means the concentration at half of the fitted maximal effect.

SMILES	Potency	activity change, negative = inhibition
CC(C)Cc1cc(C(=O)NCc2ccco2)no1	inconclusive: 4.15 µM [inhibitor, single point]	–
O=C(CSc1ccc(F)cc1)N1CCOCC1	–	inactive: 25.8%
O=C(COc1ccccc1)Nc1nnc(-c2ccc(F)cc2)o1	active: 11.7 µM	–
COc1ccc(NC(=O)CCC(=O)Nc2nnc(C3CCCCC3)s2)cc1	–	inactive: 20.1%
Cc1cc(C)c2c(N)c(C(=O)NN)sc2n1	inconclusive: 18.5 µM [inhibitor, single point]	–
CC1=CC2=NC(=O)/C(=C\c3cn(C)c4ccccc34)C(=N)N2O1	inconclusive: 0.0828 µM [inhibitor, full curve, poor fit]	–
CCO[C@@H]1OC(C(=O)NCc2ccccc2)=C[C@H](c2ccccc2)[C@H]1CCCO	inconclusive: 18.5 µM [inhibitor, partial curve, poor fit]	–
CCN1CCN(c2oc(-c3ccccc3)nc2S(=O)(=O)c2ccc(C)cc2)CC1	active: 11.7 µM	–
S=C(NCc1ccco1)NCC(c1ccco1)N1CCCCC1 (stereo not given)	inconclusive: 10.4 µM [inhibitor, single point]	–
CC(C)OC(=O)CN1CCN(S(=O)(=O)c2cc(Cl)ccc2Cl)CC1	–	inactive: 0%
CCNS(=O)(=O)c1ccc(NC(=O)Nc2cccc(C(F)(F)F)c2)cc1	–	inactive: 14.7%
O=C(Nc1ccc2cn[nH]c2c1)c1ccc(Cl)c(S(=O)(=O)N2CCOCC2)c1	inconclusive: 4.15 µM [inhibitor, partial curve]	–
COCCCNC(=S)N1CCN(c2nc3ccccc3s2)CC1	–	inactive: -2.27%
O=C(Cc1c(F)cccc1Cl)N/N=C/c1cccs1	inconclusive: 18.5 µM [inhibitor, single point]	–
CCc1ccc(CN2CCCC(CNC(=O)c3cccc(OC)c3OC)C2)cc1 (stereo not given)	inconclusive: 11.7 µM [inhibitor, single point]	–
Cc1cc(C(=O)Cn2nnc(-c3ccc(Cl)cc3)n2)c(C)n1-c1ccccc1	–	inactive: 19.7%
CC1=C(CC(=O)NCC(=O)NCC(=O)O)c2cc(F)ccc2/C1=C/c1ccc(S(C)=O)cc1 (stereo not given)	–	inactive: -10.7%
COc1ccc(Br)cc1CN(C)C(=O)c1ccc2c(c1)NC(=O)C(C)S2 (stereo not given)	inconclusive: 10.4 µM [inhibitor, partial curve, poor fit]	–
CCN(CC)S(=O)(=O)c1ccc2c(c1)N(CC(=O)NCCc1ccc(S(N)(=O)=O)cc1)C(=O)CO2	–	inactive: -21.6%
CC(C)(C)c1ccc(S(=O)(=O)N2CCc3nc4ccccc4c(C(=O)O)c3C2)cc1	–	inactive: -6.86%
CCCCCOc1ccc(C(=O)NC(C(=O)O)C(C)C)cc1 (stereo not given)	inconclusive: 1.31 µM [inhibitor, full curve, poor fit]	–
Cc1ccc2oc(=O)c3cc(C(=O)Nc4cc(-c5cccc(F)c5)no4)sc3c2c1	inconclusive: 11.7 µM [inhibitor, partial curve, poor fit]	–
O=[N+]([O-])c1cccc(Cl)c1NCCNS(=O)(=O)c1ccc(Cl)cc1	inconclusive: 18.5 µM [inhibitor, single point]	–
COc1ccccc1CO/N=C/NC(=O)c1c(OC)ccnc1Oc1ccc(F)cc1	inconclusive: 13.1 µM [inhibitor, partial curve, poor fit]	–

2 records drawn at random from the list so far, as already listed:
SMILES	Potency	activity change, negative = inhibition
Cc1cc(C)c2c(N)c(C(=O)NN)sc2n1	inconclusive: 18.5 µM [inhibitor, single point]	–
O=C(Nc1ccc2cn[nH]c2c1)c1ccc(Cl)c(S(=O)(=O)N2CCOCC2)c1	inconclusive: 4.15 µM [inhibitor, partial curve]	–

Later entries:

SMILES	Potency	activity change, negative = inhibition
N#C/C(=N\Nc1cccc2ccccc12)c1nnc2n1CCCCC2	–	inactive: 28.8%
O=C(Cn1ccc([N+](=O)[O-])n1)NCc1cccnc1	–	inactive: 288% [at 5.75 µM]
CCCN(CC(=O)Nc1ccccc1C)C(=O)C1CCN(c2ncnc3sc(C)c(C)c23)CC1	active: 7.38 µM	–
Cc1cc([N+](=O)[O-])nn1CC(=O)Nc1cccc2nonc12	inconclusive: 2.94 µM [inhibitor, partial curve, poor fit]	–
CCOc1ccc2nc(N(CCN(C)C)C(=O)c3ccc4c(c3)CCCC4)sc2c1	inconclusive: 18.5 µM [inhibitor, single point]	–
CCc1ccc(NS(=O)(=O)c2ccc3[nH]c(=O)[nH]c3c2)cc1	–	inactive: 3.07%
COc1ccc(C(=O)Nc2ccc(Cl)cc2C(=O)NCCN2CCOCC2)cc1	inconclusive: 18.5 µM [inhibitor, single point]	–
COc1ccccc1C(C[N+](=O)[O-])c1c[nH]c2ccccc12 (stereo not given)	inconclusive: 11.7 µM [inhibitor, partial curve]	–
COC(=O)c1ccccc1S(=O)(=O)N1CCC(C(=O)NCc2ccco2)CC1	inconclusive: 5.86 µM [inhibitor, partial curve, poor fit]	–
CC(=O)NC(c1ccccc1)c1cc(Cl)c2cccnc2c1O (stereo not given)	inconclusive: 9.28 µM [inhibitor, single point]	–
CCOc1ccc(/C=N\NC(=O)CC(=O)NCCc2ccccc2)cc1	inconclusive: 18.5 µM [inhibitor, single point]	–
COc1cc(Cl)ccc1NC(=O)COc1ccccc1C(=O)N1CCN(c2ccc(O)cc2)CC1	inconclusive: 18.5 µM [inhibitor, single point]	–
O=C(Nc1ccccc1Cl)O/N=C(/c1ccccc1)c1ccccn1	inconclusive: 20.8 µM [inhibitor, partial curve, poor fit]	–
CC1c2cc3c(cc2CCN1C(=O)c1ccc(C(F)(F)F)cc1)OCCCO3 (stereo not given)	inconclusive: 18.5 µM [inhibitor, single point]	–
Cc1cc2c(C)nc(-c3ccccc3)nc2o1	–	inactive: 11.1%
CCN(CC)C(=O)C1CCCN(c2ccc([N+](=O)[O-])cc2/C=N/NC(=O)c2ccccc2)C1 (stereo not given)	inconclusive: 11.7 µM [inhibitor, single point]	–
CCN1CCN(C(=O)/C=C/c2ccc(C)o2)CC1	–	inactive: -6.36%
O=C(C#Cc1ccccc1)c1ccc([N+](=O)[O-])cc1	inconclusive: 18.5 µM [inhibitor, single point]	–
CC1CCCN(c2c([N+](=O)[O-])cc(C(=O)O)cc2[N+](=O)[O-])C1 (stereo not given)	inconclusive: 10.4 µM [inhibitor, single point]	–
Cc1cc(NC(=O)CSc2nnnn2-c2ccccc2)no1	inconclusive: 18.5 µM [inhibitor, single point]	–
CC(=O)c1sc2nc(CSc3nnnn3-c3ccccc3)[nH]c(=O)c2c1C	inconclusive: 1.17 µM [inhibitor, partial curve, poor fit]	–
NC(=O)c1c(NC(NC(=O)c2ccco2)C(=O)c2ccc(Cl)cc2)sc2c1CCCC2 (stereo not given)	inconclusive: 18.5 µM [inhibitor, single point]	–
CC(=O)Nc1cccc(NC(=O)C(=O)NCC(c2ccco2)N2CCc3ccccc3C2)c1 (stereo not given)	inconclusive: 9.28 µM [inhibitor, single point]	–
Cc1cc(=O)c2n(Cc3ccc(Cl)cc3)nc[n+]2[nH]1	–	inactive: -74.3%

SMILES	Potency	activity change, negative = inhibition
COc1ccc(C(N)CCc2ccco2)cc1 (stereo not given)	inconclusive: 14.7 µM [inhibitor, partial curve]	–
CC/C(Cc1ccccc1)=N\NC(=O)c1cc(C)oc1C	–	inactive: -19.8%
CC(C)Oc1cccc(C(=O)C2CCCN(S(=O)(=O)C(C)C)C2)c1 (stereo not given)	inconclusive: 11.7 µM [inhibitor, single point]	–
O=C(NC(=S)Nc1nc(-c2ccc(Br)cc2)cs1)c1ccco1	–	inactive: 4.36%
COc1cc(C)nc(OCCNC(=O)COc2ccc(Cl)cc2C)n1	inconclusive: 18.5 µM [inhibitor, single point]	–
C#CCOC(=O)c1cc(Cl)c(=O)n(Cc2ccc(Cl)cc2Cl)c1	–	inactive: -23.4%
Cc1cc(S(=O)(=O)NCc2ccccc2)ccc1OCC(=O)N1CCCC1	inconclusive: 18.5 µM [inhibitor, single point]	–
COc1ccc(O)c(/C=N/c2nc3ccccc3n2C)c1	inconclusive: 18.5 µM [inhibitor, single point]	–
CCN(CC)C(=O)C1CCN(S(=O)(=O)c2ccc3oc4ccccc4c3c2)CC1	inconclusive: 20.8 µM [inhibitor, single point]	–
CN(Cc1ccccc1)Cc1nc2c(c(=O)n(C)c(=O)n2C)n1Cc1ccccc1Cl	inconclusive: 5.86 µM [inhibitor, partial curve, poor fit]	–
Nc1cc(=O)[nH]c(SCC(=O)c2ccc(F)cc2)n1	inconclusive: 3.29 µM [inhibitor, partial curve, poor fit]	–
O=C(O)C1Nc2ccc(Br)cc2C2C=CCC12 (stereo not given)	–	inactive: 40.2%
CN1CCc2nc3sc(C(=O)C45CC6CC(CC(C6)C4)C5)c(N)c3cc2C1	active: 2.62 µM	–
Cc1ccccc1CC(=O)NC1CCCc2ccccc21 (stereo not given)	inconclusive: 7.38 µM [inhibitor, partial curve, poor fit]	–
CC(=O)c1c(C)[nH]c(C(=O)Nc2nccs2)c1C	–	inactive: 62.4%
O=c1c(Cl)c(NCc2ccccc2Cl)cnn1C12CC3CC(CC(C3)C1)C2	inconclusive: 11.7 µM [inhibitor, partial curve]	–
CC(NC(=S)Nc1ccc(Cl)cc1Cl)C(c1cccs1)N1CCCC1 (stereo not given)	active: 11.7 µM	–
COC(=O)c1cccc(NC(=O)/C=C/c2cccc([N+](=O)[O-])c2)c1	–	inactive: 346%
C[C@@H]1CC[C@@]2(O[C@H](CCO)C[C@H](O)[C@H]2O)O1	–	inactive: -30.9%
COC(=O)CCC(C)N1CCC(Oc2ccc(C(=O)N3CCCC3)cc2)CC1 (stereo not given)	inconclusive: 18.5 µM [inhibitor, single point]	–
COc1ccccc1OCC#CCN1CCCC1	inconclusive: 11.7 µM [inhibitor, single point]	–
Cc1ccc(C2=NC3(CCCC3)N=C2SCC(=O)Nc2ccc3c(c2)OCCO3)cc1	inconclusive: 18.5 µM [inhibitor, single point]	–
